Measurements as given in patent publication US20230128969A1, “POLYURETHANE FOAM COMPOSITIONS WITH ANTIMICROBIAL PROPERTIES” (SANITIZED AG, priority 2020, published 2023).

Assay: Evaluation of foam or coating quality (quality marks)
Set-up: key: 0: no foam or coating formed; +: very bad or collapsed foam; very defective coating; ++: bad foam quality; defective coating; +++: mediocre foam or coating quality; ++++: good foam or coating quality; +++++: comparable quality with reference foam or coating
[1] = memory foam A1, 0.5 pbw (C), pbw of commercial product (active content in label)
[2] = memory foam A1, 1 pbw (C), pbw of commercial product (active content in label)
[3] = memory foam A1, 2 pbw (C), pbw of commercial product (active content in label)

O=C([O-])C(O)C(O)C(=O)O.[Na+] (stereo not drawn) [Sodium hydrogen tartrate]
Q (foam quality): ++++

O=C(O)C(O)C(O)C(=O)O (racemic) [DL-Tartaric acid]
Q (foam quality): +

O=C([O-])CN(CCN(CC(=O)[O-])CC(=O)[O-])CC(=O)[O-].[Na+].[Na+].[Na+].[Na+] [tetrasodium EDTA salt, EDTA, tetrasodium]
Q (foam quality): ++++

O=C([O-])CC(O)C(=O)[O-].[Na+].[Na+] (racemic) [DL-Malic acid disodium salt]
Q (foam quality): ++++

O=C([O-])CO.[Na+] [Sodium glycolate]
Q (foam quality): ++++

CCCCCCCCCCCC[N+](C)(C)[O-] [N,N-Dimethyldodecylamine N-oxide (30%), N,N-Dimethyldodecylamine N-oxide]
Quality at given amount of (C) in pbw: 0

CCCCCCCCCCCCCCCCCC[N+](C)(C)CCC[Si](OC)(OC)OC.[Cl-] [dimethyloctadecyl(3-(trimethoxysilyl)propyl)ammonium chloride]
Quality at given amount of (C) in pbw [1]: +++
Quality at given amount of (C) in pbw [2]: ++
Quality at given amount of (C) in pbw [3]: +
Q (foam quality) (memory foam A2, 0.125 pbw (C)): ++++
Q (foam quality) (memory foam A2, 0.25 pbw (C)): +++
Q (foam quality) (memory foam A2, 0.5 pbw (C)): ++
Q (foam quality) (memory foam A2, 1 pbw (C)): +

C[C@H](O)C(=O)[O-].[Na+] [Sodium L-lactate]
Q (foam quality): ++++

O=C([O-])CC(O)(CC(=O)O)C(=O)O.[Na+] [Monosodium citrate]
Q (foam quality): +

CCCCCCCCCC[N+](C)(C)CCCCCCCCCC.[Cl-] [didecyldimethyl ammonium chloride]
Q (foam quality): +++++ and ++++ and ++
Quality at given amount of (C) in pbw: +++++ and ++++ and ++

CCCCCCCCCCCCCC[N+](C)(C)CCC[Si](OC)(OC)OC.[Cl-] [dimethyltetradecyl(3-(trimethoxysilyl)propyl)ammonium chloride]
Quality at given amount of (C) in pbw (memory foam A1, 0.25 pbw (C), pbw of commercial product (active content in label)): +++++
Quality at given amount of (C) in pbw [1]: +++++
Q (foam quality) (memory foam A1, 0.5 pbw (C), no (B), (E) Arcol Polyol 1108 1 pbw): ++++
Q (foam quality) (memory foam A1, 0.5 pbw (C), no (B), (E) Diglyme 1 pbw): ++++
Q (foam quality) (memory foam A1, 0.5 pbw (C), no (B), (E) Triacetin 1 pbw): ++++
Q (foam quality) (memory foam A1, 0.5 pbw (C), no (B), (E) Water, dH20 1 pbw): +++
Q (foam quality) (memory foam A1, 0.5 pbw (C), no (B), no (E)): ++++
Quality at given amount of (C) in pbw [2]: ++++
Quality at given amount of (C) in pbw [3]: +++
Q (foam quality) (memory foam A2, 0.125 pbw (C)): ++++
Q (foam quality) (memory foam A2, 0.25 pbw (C)): ++++
Q (foam quality) (memory foam A2, 0.5 pbw (C)): ++++
Q (foam quality) (memory foam A2, 1 pbw (C)): +++

Where two headings read alike, the source gives them in different places.
